Results are given in words; binding and its absence hold for the method and conditions named. In cells and extracts the contact can be indirect. A yes stands for co-enrichment or nearness to the bait. Other partners may have been found.
B1: UBLCP1 (enzyme, UniProt Q8WVY7 1-318)
chain: MALPIIVKWGGQEYSVTTLSEDDTVLDLKQFLKTLTGVLPERQKLLGLKVKGKPAENDVKLGALKLKPNTKIMMMGTREESLEDVLGPPPDNDDVVNDFDIEDEVVEVENREENLLKISRRVKEYKVEILNPPREGKKLLVLDVDYTLFDHRSCAETGVELMRPYLHEFLTSAYEDYDIVIWSATNMKWIEAKMKELGVSTNANYKITFMLDSAAMITVHTPRRGLIDVKPLGVIWGKFSEFYSKKNTIMFDDIGRNFLMNPQNGLKIRPFMKAHLNRDKDKELLKLTQYLKEIAKLDDFLDLNHKYWERYLSKKQGQ
B2: UBFD1 (protein, UniProt O14562 1-309)
chain: MAAAGAPDGMEEPGMDTEAETVATEAPARPVNCLEAEAAAGAAAEDSGAARGSLQPAPAQPPGDPAAQASVSNGEDAGGGAGRELVDLKIIWNKTKHDVKFPLDSTGSELKQKIHSITGLPPAMQKVMYKGLVPEDKTLREIKVTSGAKIMVVGSTINDVLAVNTPKDAAQQDAKAEENKKEPLCRQKQHRKVLDKGKPEDVMPSVKGAQERLPTVPLSGMYNKSGGKVRLTFKLEQDQLWIGTKERTEKLPMGSIKNVVSEPIEGHEDYHMMAFQLGPTEASYYWVYWVPTQYVDAIKDTVLGKWQYF
B3: TXNL1 (protein, UniProt O43396 1-289)
chain: MVGVKPVGSDPDFQPELSGAGSRLAVVKFTMRGCGPCLRIAPAFSSMSNKYPQAVFLEVDVHQCQGTAATNNISATPTFLFFRNKVRIDQYQGADAVGLEEKIKQHLENDPGSNEDTDIPKGYMDLMPFINKAGCECLNESDEHGFDNCLRKDTTFLESDCDEQLLITVAFNQPVKLYSMKFQGPDNGQGPKYVKIFINLPRSMDFEEAERSEPTQALELTEDDIKEDGIVPLRYVKFQNVNSVTIFVQSNQGEEETTRISYFTFIGTPVQATNMNDFKRVVGKKGESH
B4: USP15 (enzyme, UniProt Q9Y4E8 1-981)
chain: MAEGGAADLDTQRSDIATLLKTSLRKGDTWYLVDSRWFKQWKKYVGFDSWDKYQMGDQNVYPGPIDNSGLLKDGDAQSLKEHLIDELDYILLPTEGWNKLVSWYTLMEGQEPIARKVVEQGMFVKHCKVEVYLTELKLCENGNMNNVVTRRFSKADTIDTIEKEIRKIFSIPDEKETRLWNKYMSNTFEPLNKPDSTIQDAGLYQGQVLVIEQKNEDGTWPRGPSTPKSPGASNFSTLPKISPSSLSNNYNNMNNRNVKNSNYCLPSYTAYKNYDYSEPGRNNEQPGLCGLSNLGNTCFMNSAIQCLSNTPPLTEYFLNDKYQEELNFDNPLGMRGEIAKSYAELIKQMWSGKFSYVTPRAFKTQVGRFAPQFSGYQQQDCQELLAFLLDGLHEDLNRIRKKPYIQLKDADGRPDKVVAEEAWENHLKRNDSIIVDIFHGLFKSTLVCPECAKISVTFDPFCYLTLPLPMKKERTLEVYLVRMDPLTKPMQYKVVVPKIGNILDLCTALSALSGIPADKMIVTDIYNHRFHRIFAMDENLSSIMERDDIYVFEININRTEDTEHVIIPVCLREKFRHSSYTHHTGSSLFGQPFLMAVPRNNTEDKLYNLLLLRMCRYVKISTETEETEGSLHCCKDQNINGNGPNGIHEEGSPSEMETDEPDDESSQDQELPSENENSQSEDSVGGDNDSENGLCTEDTCKGQLTGHKKRLFTFQFNNLGNTDINYIKDDTRHIRFDDRQLRLDERSFLALDWDPDLKKRYFDENAAEDFEKHESVEYKPPKKPFVKLKDCIELFTTKEKLGAEDPWYCPNCKEHQQATKKLDLWSLPPVLVVHLKRFSYSRYMRDKLDTLVDFPINDLDMSEFLINPNAGPCRYNLIAVSNHYGGMGGGHYTAFAKNKDDGKWYYFDDSSVSTASEDQIVSKAAYVLFYQRQDTFSGTGFFPLDRETKGASAATGIPLESDEDSNDNDNDIENENCMHTN
B5: UBL4A (protein, UniProt P11441 1-157)
chain: MQLTVKALQGRECSLQVPEDELVSTLKQLVSEKLNVPVRQQRLLFKGKALADGKRLSDYSIGPNSKLNLVVKPLEKVLLEEGEAQRLADSPPPQVWQLISKVLARHFSAADASRVLEQLQRDYERSLSRLTLDDIERLASRFLHPEVTETMEKGFSK

Amino acid sequences for entries named in this document (tags omitted).
UniProt P49721: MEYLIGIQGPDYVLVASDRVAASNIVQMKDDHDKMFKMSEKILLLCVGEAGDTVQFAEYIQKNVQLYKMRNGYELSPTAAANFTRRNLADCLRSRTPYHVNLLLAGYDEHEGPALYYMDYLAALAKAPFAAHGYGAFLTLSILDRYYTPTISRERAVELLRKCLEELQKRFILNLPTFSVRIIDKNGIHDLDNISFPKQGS

target: PSMB2-HB (20S subunit PSMB2 tagged with TEV protease-cleavable hexahistidine-biotin) (human) (UniProt P49721); experiment: affinity purification with mass spectrometry

binding, binds:
B1, B2, B3, B4, B5

From article doi:10.1101/2022.06.06.495046
